Source: PubChem BioAssay AID1259424 (University of Nebraska Medical Center, 2018)
The deposit covers about 14,000 reagents; below is a random part of them. 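Higher correlation or smaller distance means closer resemblance to KSR1 loss; control wells, including KSR1 knockdowns, recur on many plates.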 Further read-outs or replicates are left out here. Reagent sequences are not shown. Not given: the time to read-out.

- Test: 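Find knockdowns that reproduce the expression shifts seen after KSR1 loss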 (primary screen)
- Cells: human HCT116 colon cancer cells
- Reagents: siRNA pool against human genes, 50 nM
- Detection: 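Log2 levels of six mRNAs (branched-DNA multiplex), adjusted by two reference genes and the non-targeting median, then scored against the average KSR1 knockdown pattern as Pearson r and euclidean distance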
- Scale: mean correlation with KSR1 profile and KSR1 correlation: higher = expression change more like KSR1 knockdown; mean distance from KSR1 profile: higher = expression change less like KSR1 knockdown

gene,mean correlation with KSR1 profile,mean distance from KSR1 profile,"KSR1 correlation, replicate 1"
GATA3 (GATA binding protein 3),0.175,3.2,0.188
DENND4A (DENN domain containing 4A),-0.0328,2.16,-0.0411
CXADR (CXADR cell adhesion molecule),0.25,1.22,0.142
CEP57 (centrosomal protein 57),0.419,1.39,0.145
PPP2R2C (protein phosphatase 2 regulatory subunit Bgamma),-0.603,1.63,-0.593
TRABD (TraB domain containing),0.83,0.808,0.353
DUX4L1 (double homeobox 4 like 1 (pseudogene)),-0.216,2.02,-0.0645
FAM156A (family with sequence similarity 156 member A),-0.147,1.85,-0.389
TMEM117 (transmembrane protein 117),0.00221,2.7,-0.0602
NELFB (negative elongation factor complex member B),0.235,2.81,0.457
SPATS2L (spermatogenesis associated serine rich 2 like),-0.62,3.21,-0.435
C12orf43 (chromosome 12 open reading frame 43),-0.677,2.35,-0.65
KRABD4 (KRAB domain containing 4),-0.518,2.36,-0.457
GPR62 (G protein-coupled receptor 62),0.153,2.37,-0.0121
C6orf62 (chromosome 6 open reading frame 62),0.146,2.19,0.068
CAPN10 (calpain 10),-0.242,4.5,-0.413
PROSER1 (proline and serine rich 1),-0.183,2.4,-0.549
CDH18 (cadherin 18),0.569,1.14,0.454
ZNF451 (zinc finger protein 451),0.28,1.53,0.292
CCN5 (cellular communication network factor 5),-0.188,2.7,-0.0272
TARDBP (TAR DNA binding protein),0.169,1.58,0.521
SERPINB2 (serpin family B member 2),-0.679,1.41,-0.685
UMOD (uromodulin),-0.563,1.69,-0.185
PIGF (phosphatidylinositol glycan anchor biosynthesis class F),-0.424,2.75,-0.217
TSPAN7 (tetraspanin 7),-0.533,2.58,-0.412
GLUL (glutamate-ammonia ligase),0.104,1.68,0.147
C8orf33 (chromosome 8 open reading frame 33),0.316,12.8,0.398
MRM1 (mitochondrial rRNA methyltransferase 1),0.622,2.27,0.647
SEPTIN1 (septin 1),0.855,0.596,0.962
TXNDC11 (thioredoxin domain containing 11),-0.312,2.63,-0.112
IGFBP5 (insulin like growth factor binding protein 5),0.708,0.938,0.753

The list goes on (9 carried over from the part before).
gene,mean correlation with KSR1 profile,mean distance from KSR1 profile,"KSR1 correlation, replicate 1"
UMOD (uromodulin),-0.563,1.69,-0.185
PIGF (phosphatidylinositol glycan anchor biosynthesis class F),-0.424,2.75,-0.217
TSPAN7 (tetraspanin 7),-0.533,2.58,-0.412
GLUL (glutamate-ammonia ligase),0.104,1.68,0.147
C8orf33 (chromosome 8 open reading frame 33),0.316,12.8,0.398
MRM1 (mitochondrial rRNA methyltransferase 1),0.622,2.27,0.647
SEPTIN1 (septin 1),0.855,0.596,0.962
TXNDC11 (thioredoxin domain containing 11),-0.312,2.63,-0.112
IGFBP5 (insulin like growth factor binding protein 5),0.708,0.938,0.753
PTCD2 (pentatricopeptide repeat domain 2),0.828,0.957,0.873
HSDL2 (hydroxysteroid dehydrogenase like 2),0.442,3.11,-0.000616
PPP1R13B (protein phosphatase 1 regulatory subunit 13B),0.134,1.31,0.117
ETNK1 (ethanolamine kinase 1),0.459,1.41,0.53
OPN3 (opsin 3),0.261,1.72,0.435
COP1 (COP1 E3 ubiquitin ligase),-0.294,2.05,-0.215
DPT (dermatopontin),-0.49,3.11,-0.548
"PPM1G (protein phosphatase, Mg2+/Mn2+ dependent 1G)",0.14,2.16,0.247
CLMP (CXADR like cell adhesion molecule),0.722,1.3,0.753
CALM2 (calmodulin 2),0.542,3.02,0.745
TRIP11 (thyroid hormone receptor interactor 11),0.441,1.93,0.12
KXD1 (KxDL motif containing 1),-0.333,2.31,-0.446
SLC44A1,0.35,1.63,-0.177
CDC25C (cell division cycle 25C),-0.137,2.72,-0.0964
SF3B1 (splicing factor 3b subunit 1),-0.621,3.97,-0.775
ABCC8 (ATP binding cassette subfamily C member 8),0.115,2.09,-0.157
SF1 (splicing factor 1),0.552,2.15,0.531
TLK1 (tousled like kinase 1),0.503,1.56,0.609
GTF2H1 (general transcription factor IIH subunit 1),0.359,3.21,0.367
PRKG1 (protein kinase cGMP-dependent 1),0.485,1.34,0.53
NSMCE3 (NSE3 component of SMC5/6 complex),0.414,3.4,0.216
SUN1 (Sad1 and UNC84 domain containing 1),-0.441,2.17,-0.374
CORO1B (coronin 1B),-0.801,5.52,-0.669
SSUH2 (ssu-2 homolog),-0.478,1.62,-0.655
LGALS8 (galectin 8),0.321,1.7,0.425
ERC2 (ELKS/RAB6-interacting/CAST family member 2),-0.275,2.96,-0.114
XCL2 (X-C motif chemokine ligand 2),0.765,2.23,0.787
PARP4 (poly(ADP-ribose) polymerase family member 4),-0.789,3,-0.812
PPP2R5C (protein phosphatase 2 regulatory subunit B'gamma),-0.902,1.52,-0.527
RANBP9 (RAN binding protein 9),-0.43,1.81,-0.429
BCO2 (beta-carotene oxygenase 2),0.779,2.27,0.616
MYLK3 (myosin light chain kinase 3),-0.463,4.24,-0.298
